Assay results as given in PMC10861311.

B1: transcriptional regulator AraC (protein, UniProt P0A9E0 1-292)
chain: MAEAQNDPLLPGYSFNAHLVAGLTPIEANGYLDFFIDRPLGMKGYILNLTIRGQGVVKNQGREFVCRPGDILLFPPGEIHHYGRHPEAREWYHQWVYFRPRAYWHEWLNWPSIFANTGFFRPDEAHQPHFSDLFGQIINAGQGEGRYSELLAINLLEQLLLRRMEAINESLHPPMDNRVREACQYISDHLADSNFDIASVAQHVCLSPSRLSHLFRQQLGISVLSWREDQRISQAKLLLSTTRMPIATVGRNVGFDDQLYFSRVFKKCTGASPSEFRAGCEEKVNDVAVKLS
B2: multidrug efflux RND transporter permease AcrD (protein, UniProt P24177 1-1037)
chain: MANFFIDRPIFAWVLAILLCLTGTLAIFSLPVEQYPDLAPPNVRVTANYPGASAQTLENTVTQVIEQNMTGLDNLMYMSSQSSGTGQASVTLSFKAGTDPDEAVQQVQNQLQSAMRKLPQAVQNQGVTVRKTGDTNILTIAFVSTDGSMDKQDIADYVASNIQDPLSRVNGVGDIDAYGSQYSMRIWLDPAKLNSFQMTAKDVTDAIESQNAQIAVGQLGGTPSVDKQALNATINAQSLLQTPEQFRDITLRVNQDGSEVRLGDVATVEMGAEKYDYLSRFNGKPASGLGVKLASGANEMATAELVLNRLDELAQYFPHGLEYKVAYETTSFVKASIEDVVKTLLEAIALVFLVMYLFLQNFRATLIPTIAVPVVLMGTFSVLYAFGYSVNTLTMFAMVLAIGLLVDDAIVVVENVERIMSEEGLTPREATRKSMGQIQGALVGIAMVLSAVFVPMAFFGGTTGAIYRQFSITIVAAMVLSVLVAMILTPALCATLLKPLKKGEHHGQKGFFAWFNQMFNRNAERYEKGVAKILHRSLRWIVIYVLLLGGMVFLFLRLPTSFLPLEDRGMFTTSVQLPSGSTQQQTLKVVEQIEKYYFTHEKDNIMSVFATVGSGPGGNGQNVARMFIRLKDWSERDSKTGTSFAIIERATKAFNQIKEARVIASSPPAISGLGSSAGFDMELQDHAGAGHDALMAARNQLLALAAENPELTRVRHNGLDDSPQLQIDIDQRKAQALGVAIDDINDTLQTAWGSSYVNDFMDRGRVKKVYVQAAAPYRMLPDDINLWYVRNKDGGMVPFSAFATSRWETGSPRLERYNGYSAVEIVGEAAPGVSTGTAMDIMESLVKQLPNGFGLEWTAMSYQERLSGAQAPALYAISLLVVFLCLAALYESWSVPFSVMLVVPLGVIGALLATWMRGLENDVYFQVGLLTVIGLSAKNAILIVEFANEMNQKGHDLFEATLHACRQRLRPILMTSLAFIFGVLPMATSTGAGSGGQHAVGTGVMGGMISATILAIYFVPLFFVLVRRRFPLKPRPE
B3: multidrug efflux transporter outer membrane subunit MdtP (protein, UniProt P32714 24-488)
chain: CALVRKDSAPHQQLKPEQIKLADDIHLASSGWPQAQWWKQLNDPQLDALIQRTLSGSHTLAEAKLREEKAQSQADLLDAGSQLQVAALGMLNRQRVSANGFLSPYSMDAPALGMDGPYYTEATVGLFAGLDLDLWGVHRSAVAAAIGAHNAALAETAAVELSLATGVAQLYYSMQASYQMLDLLEQTHDVIDYAVKAHQSKVAHGLEAQVPFHGARAQILAVDKQIVAVKGQITETRESLRALIGAGASDMPEIRPVALPQVQTGIPATLSYELLARRPDLQAMRWYVQASLDQVDSARALFYPSFDIKAFFGLDSIHLHTLFKKTSRQFNFIPGLKLPLFDGGRLNANLEGTRAASNMMIERYNQSVLNAVRDVAVNGTRLQTLNDEREMQAERVEATRFTQRAAEAAYQRGLTSRLQATEARLPVLAEEMSLLMLDSRRVIQSIQLMKSLGGGYQAGPVVEKK
B4: histidine kinase precursor ZraS (protein, UniProt P14377 1-465)
chain: MRFMQRSKDSLAKWLSAILPVVIVGLVGLFAVTVIRDYGRASEADRQALLEKGNVLIRALESGSRVGMGMRMHHVQQQALLEEMAGQPGVLWFAVTDAQGIIILHSDPDKVGRALYSPDEMQKLKPEENSRWRLLGKTETTPALEVYRLFQPMSAPWRHGMHNMPRCNGKAVPQVDAQQAIFIAVDASDLVATQSGEKRNTLIILFALATVLLASVLSFFWYRRYLRSRQLLQDEMKRKEKLVALGHLAAGVAHEIRNPLSSIKGLAKYFAERAPAGGEAHQLAQVMAKEADRLNRVVSELLELVKPTHLALQAVDLNTLINHSLQLVSQDANSREIQLRFTANDTLPEIQADPDRLTQVLLNLYLNAIQAIGQHGVISVTASESGAGVKISVTDSGKGIAADQLDAIFTPYFTTKAEGTGLGLAVVHNIVEQHGGTIQVASQEGKGSTFTLWLPVNITRKDPQG
B5: histidine kinase YpdA (protein, UniProt P0AA93 1-565)
chain: MHEIFNMLLAVFDRAALMLICLFFLIRIRLFRELLHKSAHSPKELLAVTAIFSLFALFSTWSGVPVEGSLVNVRIIAVMSGGILFGPWVGIITGVIAGIHRYLIDIGGVTAIPCFITSILAGCISGWINLKIPKAQRWRVGILGGMLCETLTMILVIVWAPTTALGIDIVSKIGIPMILGSVCIGFIVLLVQSVEGEKEASAARQAKLALDIANKTLPLFRHVNSESLRKVCEIIRDDIHADAVAITNTDHVLAYVGVGEHNYQNGDDFISPTTRQAMNYGKIIIKNNDEAHRTPEIHSMLVIPLWEKGVVTGTLKIYYCHAHQITSSLQEMAVGLSQIISTQLEVSRAEQLREMANKAELRALQSKINPHFLFNALNAISSSIRLNPDTARQLIFNLSRYLRYNIELKDDEQIDIKKELYQIKDYIAIEQARFGDKLTVIYDIDEEVNCCIPSLLIQPLVENAIVHGIQPCKGKGVVTISVAECGNRVRIAVRDTGHGIDPKVIERVEANEMPGNKIGLLNVHHRVKLLYGEGLHIRRLEPGTEIAFYIPNQRTPVASQATLLL

What follows are binders tested against GST-NDM-5 fusion protein (E. coli) (assay: affinity purification with mass spectrometry; about 25 ug GST-NDM-5 (or GST as control) immobilised on glutathione resin; 25 ug total protein from E. coli added; 4 °C for 4 h; washed 3 times with PBS; eluate analysed by SDS-PAGE (silver stain) and mass spectrometry (MASCOT, UniProt); proteins also found with GST alone removed; only the target purified).
B1 was tested, and the binding was “binds”.
B2 was tested, and the binding was “binds”.
In the case of B3, the binding is reported as “binds”.
For B4, the binding was “binds”.
B5 was tested, and the binding was “binds”.

No constants are given. Whether binding was seen depends on the method and setting. Binding seen in cells or lysates may run through a third protein. A yes stands for co-enrichment or nearness to the bait. Other partners may have been found. Tags and fused reporters may be left off the sequences shown.
